## Screening data, single-dose tests

The filed quantity is “Percent Effect” (%).
The controls that fix the scale are not given in the record; negative values are as filed.
This is an unselected part of the compounds tested.

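Whole-cell growth test on Mycobacterium tuberculosis, read after 3 days in glucose-containing 7H9 medium; the read-out is not stated. Compounds at 500 µM. The record gives no direction; compounds that gave an IC50 in retests scored well above the rest, so higher reads as more growth inhibition. About 18,000 compounds were tested under these conditions; 7.9% (about 1,400) showed 50% or more at least once.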

- Cc1cc(C(N)=O)ccc1I : 48.75%
- Cc1ccc(C(=O)NCCSc2nncn2C)s1 : 9.84%
- NC1CCCN(c2ccccc2F)C1 (stereo not drawn) : -8.097%
- N[C@H]1c2ccccc2C[C@H]1F : 6.092%
- CCCNC(=O)CN1CCN(c2ccccc2O)CC1 : -7.852%
- CC(CN1CCOCC1)NC(=O)NC1CC1 (stereo not drawn) : 1.478%
- CN(CC(O)C(F)(F)F)C(=O)c1cccc(C#N)c1 (stereo not drawn) : 7.215%
- Cc1ccc(CNCc2cc[nH]n2)c(N2CCCC2)n1 : 16.22%
- FC(F)(F)c1cccnc1NCC1CNCCOC1 (stereo not drawn) : 16.31%
- CN(CCN1CCCC1)C(=O)Nc1cccc(C#N)c1 : 41.52%
- CCS(=O)(=O)CCNC(=O)c1cn2cccnc2n1 : -0.2985%
- CC1COc2ccccc2N1CC(N)=O (stereo not drawn) : 20.85%
- Nc1ccc(C(=O)N2CCC(n3cnnc3)CC2)cn1 : 13.76%
- CN(C)S(=O)(=O)N1CCN(CC2CCCCO2)CC1 (stereo not drawn) : 8.681%
- CN(C)c1cc(CNS(=O)(=O)c2cccs2)ccn1 : 39.09%
- CCn1ncnc1CN1C[C@H](O)[C@@H](N2CCCCC2)C1 : 0.8114%
- Cc1cc(C(C)NC(=O)CN2CSCC2=O)c(C)s1 (stereo not drawn) : 56.28%
- CC(C)(C)c1nc(CN2CCCC(CN)C2)no1 (stereo not drawn) : 12.2%
- CS(=O)(=O)c1nc2ccccc2n1CCC(N)=O : -2.454%
- NC(=O)c1cc(F)ccc1N1CCNCC1 : 6.987%
- NS(=O)(=O)c1ccc(Sc2ccc(F)cc2F)nc1 : 28.53%
- Nc1ccc(C(F)(F)F)nn1 : 4.933%
- NCCc1nc2cc(F)ccc2s1 : 14.3%
- CCC(=O)N1CCN(C(=O)Cc2ccc(Br)s2)CC1 : 38.57%
- COc1ccc(CC(=O)N2CCNC2=O)cc1 : 28.92%
- CC(C)CC1NCCCNC1=O (stereo not drawn) : 8.618%
- O=C(NC1CCN(C(=O)C2CC2)CC1)c1cnc[nH]1 : 8.337%
- O=S(=O)(NC1CCCNC1)c1ccccc1 (stereo not drawn) : 6.87%
- NS(=O)(=O)N(Cc1cccs1)C1CC1 : 20.6%
- c1ccc(CCNC2CC2)nc1 : 13.46%
- CCC(=O)N1CCN(c2ccc(C(C)=O)cc2F)CC1 : 12.8%
- COCCn1cnnc1SCc1ccc(C#N)cc1 : 7.139%
- CNC(=O)N(Cc1ccco1)C1CCN(C)CC1 : -5.982%
- CNC(=O)C(C)CN(C)C(=O)Nc1c(C)cccc1Cl (stereo not drawn) : 1.927%
- CC(C)(CO)C(N)c1ccccc1 (stereo not drawn) : 4.263%
- NC(=O)CSc1nc(-c2ccc(Br)cc2)c[nH]1 : 87.97%
- CCOc1ccc2[nH]c(C(C)O)nc2c1 (stereo not drawn) : -4.087%
- NCc1ccc(CN2CCCCC2)cc1 : -22.18%
- Cn1cc(CNS(=O)(=O)Cc2ccccc2)cn1 : 12.58%
- Cc1nc(C(C)(C)NCCCO)sc1C : -7.21%
- CCCOCC(=O)Nc1ncccc1NC(C)=O : 38.18%
- CCCNC(=O)CC1Sc2ccccc2NC1=O (stereo not drawn) : -11.06%

Some entries from above, unchanged:

SMILES	percent effect
Cn1cc(CNS(=O)(=O)Cc2ccccc2)cn1	12.58%
CN(C)S(=O)(=O)N1CCN(CC2CCCCO2)CC1 (stereo not drawn)	8.681%
NC1CCCN(c2ccccc2F)C1 (stereo not drawn)	-8.097%
COCCn1cnnc1SCc1ccc(C#N)cc1	7.139%

The values are deposited in ChEMBL (CHEMBL3988442, “University of Dundee, Small-Polar-MMV Screening Library” (2021)).